Reference: PMC1937011
No constants are given. Whether binding was seen depends on the method and setting. In cells and extracts the contact can be indirect. Some binding calls cover weakened binding; strength is not graded here. Tags and fused reporters may be left off the sequences shown.

By UniProt entry, the sequences of proteins in these tests, tags left out.
UniProt P9WJD9: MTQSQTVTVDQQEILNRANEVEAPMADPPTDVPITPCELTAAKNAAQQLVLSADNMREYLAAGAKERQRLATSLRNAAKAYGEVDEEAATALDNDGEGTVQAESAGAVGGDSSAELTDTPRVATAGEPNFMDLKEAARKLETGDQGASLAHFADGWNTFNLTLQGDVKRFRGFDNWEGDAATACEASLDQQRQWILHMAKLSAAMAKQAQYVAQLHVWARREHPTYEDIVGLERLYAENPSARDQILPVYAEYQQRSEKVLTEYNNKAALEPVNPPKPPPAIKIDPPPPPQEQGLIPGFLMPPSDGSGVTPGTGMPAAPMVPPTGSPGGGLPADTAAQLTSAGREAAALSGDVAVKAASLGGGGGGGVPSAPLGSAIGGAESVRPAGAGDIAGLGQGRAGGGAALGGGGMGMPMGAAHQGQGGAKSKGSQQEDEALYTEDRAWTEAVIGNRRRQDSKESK

Biological target: T1, GST-tagged Rv3879c (M. tuberculosis) (UniProt P9WJC1)
T1 sequence: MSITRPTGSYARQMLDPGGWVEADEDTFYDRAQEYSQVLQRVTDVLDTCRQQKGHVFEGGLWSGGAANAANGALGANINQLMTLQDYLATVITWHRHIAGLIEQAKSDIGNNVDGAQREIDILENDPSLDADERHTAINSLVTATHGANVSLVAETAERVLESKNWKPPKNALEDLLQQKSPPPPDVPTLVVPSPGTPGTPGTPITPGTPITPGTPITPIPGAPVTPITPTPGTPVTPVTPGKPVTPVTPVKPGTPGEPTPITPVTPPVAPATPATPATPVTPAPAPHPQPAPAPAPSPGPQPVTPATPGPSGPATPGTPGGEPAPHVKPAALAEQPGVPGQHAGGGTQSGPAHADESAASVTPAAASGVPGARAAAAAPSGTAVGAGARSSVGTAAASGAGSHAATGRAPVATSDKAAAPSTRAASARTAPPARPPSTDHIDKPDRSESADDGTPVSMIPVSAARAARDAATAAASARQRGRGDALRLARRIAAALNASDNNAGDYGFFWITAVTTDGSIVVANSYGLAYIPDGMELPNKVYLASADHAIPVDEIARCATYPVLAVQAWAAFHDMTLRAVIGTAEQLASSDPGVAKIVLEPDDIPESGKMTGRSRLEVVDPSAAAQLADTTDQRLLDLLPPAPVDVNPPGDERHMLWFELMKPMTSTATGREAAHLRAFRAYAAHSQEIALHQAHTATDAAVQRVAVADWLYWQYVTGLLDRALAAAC

For “V5-tagged EspBT (from UniProt P9WJD9 1-460)”, the binding was “binds”.
